# Assay results reported in the supplement of paper PMC4604168 (melanoma cell lines).
# Some of the results follow. Many values rest on one well or one pass, so single values are uncertain.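 The apoptosis fraction was the count of cleaved-PARP antibody-stained nuclei relative to all DNA-stained nuclei, imaged in 1,536-well plates. Screening doses were set so most cells survived, and baseline and induced cleaved-PARP levels vary greatly across cell lines.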
# Tested on: LB2518-MEL
# Test: cleaved PARP positive nuclei fraction relative to DMSO control; melanoma cells; higher = more apoptosis
# Details: library dose: low library concentration; 72 h
row,SMILES,cleaved PARP positive nuclei fraction
1,"CS(=O)(=O)c1ccc(C(=O)Nc2ccc(Cl)c(-c3ccccn3)c2)c(Cl)c1 [vismodegib] + NC(=O)Nc1cc(-c2cccc(F)c2)sc1C(=O)N[C@H]1CCCNC1 [AZD7762] (first compound 1 µM, partner dose 0.02 µM)",16.4%
2,"CC(=O)O[C@@]12CO[C@@H]1C[C@H](O)[C@@]1(C)C(=O)[C@H](O)C3=C(C)[C@@H](OC(=O)[C@H](O)[C@@H](NC(=O)OC(C)(C)C)c4ccccc4)C[C@@](O)([C@@H](OC(=O)c4ccccc4)[C@H]21)C3(C)C [Docetaxel] + CO[C@@H]1[C@H](N(C)C(=O)c2ccccc2)C[C@H]2O[C@]1(C)n1c3ccccc3c3c4c(c5c6ccccc6n2c5c31)C(=O)NC4 [Midostaurin] (first compound 0.0001 µM, partner dose 0.08 µM)",116%
3,"CC(=O)O[C@@]12CO[C@@H]1C[C@H](O)[C@@]1(C)C(=O)[C@H](O)C3=C(C)[C@@H](OC(=O)[C@H](O)[C@@H](NC(=O)OC(C)(C)C)c4ccccc4)C[C@@](O)([C@@H](OC(=O)c4ccccc4)[C@H]21)C3(C)C [Docetaxel] + Cc1ccc(NC(=O)c2cccc(N(C)C)c2)cc1NC(=O)c1ccc(O)cc1 [ZM336372] (first compound 0.0001 µM, partner dose 2 µM)",124%
4,"Cn1sc(=O)n(Cc2ccccc2)c1=O + NC(=O)Nc1cc(-c2cccc(F)c2)sc1C(=O)N[C@H]1CCCNC1 [AZD7762] (first compound 0.4 µM, partner dose 0.02 µM)",64.1%
5,"C[C@@H](N)c1ccc(C(=O)Nc2ccnc3[nH]ccc23)cc1 + O=C(O)c1ccc(-c2c[nH]c3ncc(-c4ccccc4)cc23)cc1C1CCCC1 [GSK650394] (first compound 0.4 µM, partner dose 0.16 µM)",189%
6,"NC1(c2ccc(-c3nc4ccn5c(=O)[nH]nc5c4cc3-c3ccccc3)cc2)CCC1 + NC(=O)Nc1cc(-c2cccc(F)c2)sc1C(=O)N[C@H]1CCCNC1 [AZD7762] (first compound 0.4 µM, partner dose 0.02 µM)",367%
7,"COc1ccc(C2=N[C@@H](c3ccc(Cl)cc3)[C@@H](c3ccc(Cl)cc3)N2C(=O)N2CCNC(=O)C2)c(OC(C)C)c1 [Nutlin-3] + COc1cc2c(Oc3ccc4[nH]c(C)cc4c3F)ncnc2cc1OCCCN1CCCC1 [cediranib] (first compound 0.1 µM, partner dose 0.4 µM)",106%
8,"Cn1cnc2c(F)c(Nc3ccc(Br)cc3Cl)c(C(=O)NOCCO)cc21 [selumetinib] + CC1(C)NC(=O)N(c2ccc([N+](=O)[O-])c(C(F)(F)F)c2)C1=O [nilutamide] (first compound 0.015 µM, partner dose 1 µM)",154%
9,"NC(=O)c1ccc(N(C(N)=O)c2c(F)cccc2F)nc1-c1ccc(F)cc1F + Cc1ccc(NC(=O)c2cccc(N(C)C)c2)cc1NC(=O)c1ccc(O)cc1 [ZM336372] (first compound 0.4 µM, partner dose 2 µM)",107%
10,"CC1(C)CCC(c2ccc(Cl)cc2)=C(CN2CCN(c3ccc(C(=O)NS(=O)(=O)c4ccc(N[C@H](CCN5CCOCC5)CSc5ccccc5)c(S(=O)(=O)C(F)(F)F)c4)cc3)CC2)C1 + CN(NC(=O)CC(=O)NN(C)C(=S)c1ccccc1)C(=S)c1ccccc1 [STA4783] (first compound 0.4 µM, partner dose 0.006 µM)",102%
11,"Cn1cnc2c(F)c(Nc3ccc(Br)cc3Cl)c(C(=O)NOCCO)cc21 [selumetinib] + NCC(=O)Nc1ccc(-n2nc(C(F)(F)F)cc2-c2ccc3c(ccc4ccccc43)c2)cc1 [OSU03012] (first compound 0.015 µM, partner dose 1 µM)",148%
12,"CC1(C)CCC(c2ccc(Cl)cc2)=C(CN2CCN(c3ccc(C(=O)NS(=O)(=O)c4ccc(N[C@H](CCN5CCOCC5)CSc5ccccc5)c(S(=O)(=O)C(F)(F)F)c4)cc3)CC2)C1 + CC1(C)NC(=O)N(c2ccc([N+](=O)[O-])c(C(F)(F)F)c2)C1=O [nilutamide] (first compound 0.4 µM, partner dose 1 µM)",85.4%
13,"CC1(C)CCC(c2ccc(Cl)cc2)=C(CN2CCN(c3ccc(C(=O)NS(=O)(=O)c4ccc(N[C@H](CCN5CCOCC5)CSc5ccccc5)c(S(=O)(=O)C(F)(F)F)c4)cc3)CC2)C1 + COc1cc(Nc2ncc(F)c(Nc3ccc4c(n3)NC(=O)C(C)(C)O4)n2)cc(OC)c1OC [Tamatinib] (first compound 0.4 µM, partner dose 0.4 µM)",379%
14,"CCCCCCCCc1ccc(CCC(N)(CO)CO)cc1 [fingolimod] + OCCn1cc(-c2cnc3nnn(Cc4ccc5ncccc5c4)c3n2)cn1 [PF04217903] (first compound 2 µM, partner dose 1 µM)",49.8%
15,"C[C@]1(O)C[C@@H](c2nc(-c3ccc4ccc(-c5ccccc5)nc4c3)c3c(N)nccn32)C1 + COc1cc(Nc2ncc(F)c(Nc3ccc4c(n3)NC(=O)C(C)(C)O4)n2)cc(OC)c1OC [Tamatinib] (first compound 0.4 µM, partner dose 0.4 µM)",486%
16,"CCN(CC)CCNC(=O)c1c(C)[nH]c(/C=C2\C(=O)Nc3ccc(F)cc32)c1C [sunitinib] + O=C(Nc1cccc(Cl)c1)Nc1ncc(CCNc2ncnc3ccsc23)s1 [SNS314] (first compound 0.4 µM, partner dose 0.0008 µM)",45.1%
17,"NC1(c2ccc(-c3nc4ccn5c(=O)[nH]nc5c4cc3-c3ccccc3)cc2)CCC1 + O=C(Nc1cccc(Cl)c1)Nc1ncc(CCNc2ncnc3ccsc23)s1 [SNS314] (first compound 0.4 µM, partner dose 0.0008 µM)",137%
18,"C[C@@H](N)c1ccc(C(=O)Nc2ccnc3[nH]ccc23)cc1 + C[C@@H]1CCN(C(=O)CC#N)C[C@@H]1N(C)c1ncnc2[nH]ccc12 [CP690550] (first compound 0.4 µM, partner dose 1 µM)",74%
19,"CN(c1ncccc1CNc1nc(Nc2ccc3c(c2)CC(=O)N3)ncc1C(F)(F)F)S(C)(=O)=O + NC(=O)Nc1cc(-c2cccc(F)c2)sc1C(=O)N[C@H]1CCCNC1 [AZD7762] (first compound 0.08 µM, partner dose 0.02 µM)",140%
20,"C[C@@H](N)c1ccc(C(=O)Nc2ccnc3[nH]ccc23)cc1 + Cc1cc(N2CCOCC2)cc2[nH]c(-c3c(NC[C@@H](O)c4cccc(Cl)c4)cc[nH]c3=O)nc12 [BMS536924] (first compound 0.4 µM, partner dose 0.2 µM)",170%
21,"NC1(c2ccc(-c3nc4ccn5c(=O)[nH]nc5c4cc3-c3ccccc3)cc2)CCC1 + CC(C)(C)c1cnc(CSc2cnc(NC(=O)C3CCNCC3)s2)o1 [SNS-032] (first compound 0.4 µM, partner dose 0.01 µM)",111%
22,"C[C@]1(O)C[C@@H](c2nc(-c3ccc4ccc(-c5ccccc5)nc4c3)c3c(N)nccn32)C1 + NC(=O)Nc1cc(-c2cccc(F)c2)sc1C(=O)N[C@H]1CCCNC1 [AZD7762] (first compound 0.4 µM, partner dose 0.02 µM)",97.5%
23,"CCN(CC)CCNC(=O)c1c(C)[nH]c(/C=C2\C(=O)Nc3ccc(F)cc32)c1C [sunitinib] + C=CCn1c(=O)c2cnc(Nc3ccc(N4CCN(C)CC4)cc3)nc2n1-c1cccc(C(C)(C)O)n1 [MK1775] (first compound 0.4 µM, partner dose 0.02 µM)",204%
24,"COc1ccc(C2=N[C@@H](c3ccc(Cl)cc3)[C@@H](c3ccc(Cl)cc3)N2C(=O)N2CCNC(=O)C2)c(OC(C)C)c1 [Nutlin-3] + CC1(C)NC(=O)N(c2ccc([N+](=O)[O-])c(C(F)(F)F)c2)C1=O [nilutamide] (first compound 0.1 µM, partner dose 1 µM)",220%
25,"Cn1cnc2c(F)c(Nc3ccc(Br)cc3Cl)c(C(=O)NOCCO)cc21 [selumetinib] + O=C(CCCCCCC(=O)Nc1ccccc1)NO [vorinostat] (first compound 0.015 µM, partner dose 0.08 µM)",128%
26,"COc1ccc(C2=N[C@@H](c3ccc(Cl)cc3)[C@@H](c3ccc(Cl)cc3)N2C(=O)N2CCNC(=O)C2)c(OC(C)C)c1 [Nutlin-3] + Cc1ccc(NC(=O)c2cccc(N(C)C)c2)cc1NC(=O)c1ccc(O)cc1 [ZM336372] (first compound 0.1 µM, partner dose 2 µM)",213%
27,"CS(=O)(=O)c1ccc(C(=O)Nc2ccc(Cl)c(-c3ccccn3)c2)c(Cl)c1 [vismodegib] + O=C(O)c1ccc(-c2c[nH]c3ncc(-c4ccccc4)cc23)cc1C1CCCC1 [GSK650394] (first compound 1 µM, partner dose 0.16 µM)",75.8%
28,"C[C@]1(O)C[C@@H](c2nc(-c3ccc4ccc(-c5ccccc5)nc4c3)c3c(N)nccn32)C1 + CC(C)(C)c1cnc(CSc2cnc(NC(=O)C3CCNCC3)s2)o1 [SNS-032] (first compound 0.4 µM, partner dose 0.01 µM)",221%
29,"CC(=O)O[C@@]12CO[C@@H]1C[C@H](O)[C@@]1(C)C(=O)[C@H](O)C3=C(C)[C@@H](OC(=O)[C@H](O)[C@@H](NC(=O)OC(C)(C)C)c4ccccc4)C[C@@](O)([C@@H](OC(=O)c4ccccc4)[C@H]21)C3(C)C [Docetaxel] + COc1cc(Nc2ncc(F)c(Nc3ccc4c(n3)NC(=O)C(C)(C)O4)n2)cc(OC)c1OC [Tamatinib] (first compound 0.0001 µM, partner dose 0.4 µM)",218%

# Some of the entries above, set out differently.
row	SMILES	cleaved PARP positive nuclei fraction
3	CC(=O)O[C@@]12CO[C@@H]1C[C@H](O)[C@@]1(C)C(=O)[C@H](O)C3=C(C)[C@@H](OC(=O)[C@H](O)[C@@H](NC(=O)OC(C)(C)C)c4ccccc4)C[C@@](O)([C@@H](OC(=O)c4ccccc4)[C@H]21)C3(C)C [Docetaxel] + Cc1ccc(NC(=O)c2cccc(N(C)C)c2)cc1NC(=O)c1ccc(O)cc1 [ZM336372] (first compound 0.0001 µM, partner dose 2 µM)	124%
4	Cn1sc(=O)n(Cc2ccccc2)c1=O + NC(=O)Nc1cc(-c2cccc(F)c2)sc1C(=O)N[C@H]1CCCNC1 [AZD7762] (first compound 0.4 µM, partner dose 0.02 µM)	64.1%
